PubChem BioAssay AID686938, Drosophila RNAi Screening Center | 2013

- Assay: 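Knock-downs reducing store-operated calcium influx in Drosophila cells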 (primary screen)
- System: Drosophila S2R+ cells
- Reagent: long dsRNA against Drosophila genes, about 0.25 µg dsRNA per well, roughly 10,000 cells
- Timing: 5 days of knock-down before the calcium assay
- Treatment: thapsigargin (SERCA pump blocker) to empty calcium stores; entry signal taken 4 min after adding it
- Detection: 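Duplicate raw fluo-4 intensities per well from a plate reader, at rest and four minutes after thapsigargin emptied calcium stores; entry-to-rest ratio filled for only some wells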
- Scale: calcium entry signal: higher = stronger calcium signal after store depletion; entry to resting ratio: higher = more calcium entry relative to resting level; resting calcium signal: higher = higher resting calcium signal
- Units: calcium entry signal in fluorescence units; resting calcium signal in fluorescence units
- Hit rule: 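Called when the plate z-score of the entry-to-rest ratio, mean of duplicates, falls below −3; wells with low overall dye signal (Fmax z below −2) or more than five off-targets excluded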
- Calls: active = strongly reduced calcium entry; inactive = no strong reduction
The screen tested about 23,000 reagents; below is a random part of those with a known target gene and a result. Over the whole deposit, 75 (0.33%) got an active call. 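Raw plate signals without normalisation; calls rest on plate z-scores that were not deposited; ratio present for only 364 wells.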 The numbers tell different reagents against one gene apart. Names joined by + are all predicted targets of the reagent. Not stated in the record: the dose of the treatment.

predicted target	dsRNA no.	calcium entry signal, replicate 1	calcium entry signal, replicate 2	entry to resting ratio	resting calcium signal, replicate 1	resting calcium signal, replicate 2	call
YME1L	1	3.66e7			1.90e7		inactive
CG13473	1	3.38e7	4.49e7		1.69e7	2.94e7	inactive
GluClalpha	1	4.78e7	4.87e7		4.22e7	2.15e7	inactive
Dd	1	3.42e7	3.07e7		1.52e7	1.28e7	inactive
CG42634 + CG42635	1	4.51e7	3.71e7		2.07e7	1.82e7	inactive
CG17217	1	3.73e7	2.29e7		1.76e7	1.17e7	inactive
Hsc70-2	1	2.38e7	4.70e7		1.16e7	2.64e7	inactive
CG12531	1	3.89e7	3.27e7		1.79e7	1.37e7	inactive
CG13258	1	4.78e7	4.14e7		2.25e7	1.97e7	inactive
Myc	1	4.08e7	4.15e7	1.8	2.24e7	2.08e7	inactive
CG4743	1	4.05e7	5.47e7		1.98e7	2.40e7	inactive
snoRNA:Me28S-A982b + Uhg4 + snoRNA:Me28S-G3255a + 1 more	1	2.85e7	3.88e7		1.32e7	1.81e7	inactive
drm	1	2.98e7	3.55e7		1.50e7	1.72e7	inactive
TBC1D16	1	2.79e7	4.33e7		1.40e7	1.80e7	inactive
wit	1	4.74e7	3.29e7		3.04e7	1.34e7	inactive
beat-Ia	1	4.73e7	3.64e7		2.00e7	1.59e7	inactive
Sur	1	4.94e7			2.39e7		inactive
IscU	1	4.79e7	3.08e7		2.26e7	1.59e7	inactive
CG34427	1	3.67e7	5.40e7		1.72e7	2.34e7	inactive
Tsp97E	1	2.87e7	3.94e7		1.41e7	2.02e7	inactive
CG15036	1	3.40e7	3.98e7		1.69e7	2.06e7	inactive
Parg	1	3.80e7	4.88e7		1.80e7	2.16e7	inactive
Sil1	1	3.81e7	3.34e7		1.72e7	1.44e7	inactive
CG11052	1	5.01e7	4.34e7		2.41e7	2.00e7	inactive
MFS18	1	1.08e8			2.68e7		inactive
Ama	1	3.63e7	4.15e7		1.52e7	1.94e7	inactive
Ir21a + asRNA:CR43609	1	3.46e7	3.29e7		1.67e7	1.57e7	inactive
CG10927	1	3.85e7	3.91e7		1.70e7	1.89e7	inactive
su(Hw)	1	2.95e7	3.13e7		1.47e7	1.59e7	inactive
Ir60a	1	3.30e7	4.27e7		1.80e7	1.96e7	inactive
Cht7 + tRNA:Cys-GCA-1-4 + tRNA:Lys-CTT-1-13	1	1.50e7	4.43e7		8.89e6	1.94e7	inactive
fd96Cb	1	2.32e7	6.03e7		2.32e7	2.63e7	inactive
Arms	1	3.25e7	4.50e7		1.51e7	1.92e7	inactive
Arms	2	3.26e7	6.56e7		1.49e7	2.83e7	inactive
Arms	3	4.58e7			2.16e7		inactive
Arms	4	2.32e7	3.02e7		1.49e7	1.89e7	inactive
SH3PX1	1	3.45e7	4.45e7		1.97e7	2.17e7	inactive
fzo	1	3.70e7	6.52e7		1.83e7	2.75e7	inactive
His4r	1	1.06e7	1.60e7		7.47e6	4.50e7	inactive
CG43088	1	3.34e7	4.28e7		1.76e7	1.83e7	inactive
CG43088	2	3.54e7	3.66e7		2.04e7	1.75e7	inactive
